{"source": "patent US8889638B2", "about": "“Stimulus-triggered prodrugs” (The Regents of the University of California, priority 2010, dated 2014)"}
{"experiment": "Cleavage of sulfonate ester PZBGs and proMMPi by H2O2 (UV-Vis, rate constant, HPLC)", "format": "physicochemical", "details": "0.05 mM, HEPES pH 7.5, H2O2 18 equiv, 60 min", "experimental": "Absorption spectra of compounds were taken on a Perkin-Elmer Lambda 25 UV-Visible Spectrophotometer. To a 1.0 mL solution at 0.05 mM concentration of each compound in HEPES buffer (50 mM, pH 7.5) was added H2O2 (10 μL, 0.09M in HEPES) and absorption spectra were monitored over time at room temperature. Hydrolytic stability was measured by monitoring each sample in HEPES buffer over a 24 hour time period.\nThe pseudo-first order rate constant was calculated following literature procedure. To a 1.0 mL solution of compounds PZBG-1a, PZBG-1b, PZBG-1e, PZBG-5a, and PZBG-5b in HEPES buffer at 50 μM was added H2O2 to final concentrations of 150 μM, 250 μM, 500 μM, 750 μM, and 900 μM. Spectra were monitored over 15-30 min at room temperature with at least 50 spectra recorded at every concentration. The change in absorption at 298 nm for PZBG-1a and PZBG-1b were monitored, while the change in absorption at 288 nm was recorded for PZBG-1e, and 310 nm for PZBG-5a and PZBG-5b. The rate constant (kobs) was found from the linear slope of ln [(A−AZBG)/(Ao−AZBG)] vs. time where AZBG is the absorbance of a 50 μM sample of the ZBG or full-length inhibitor and AO is the initial absorbance of PZBG-1a, PZBG-1b, PZBG-1e, PZBG-5a, and PZBG-5b. The rate of conversion was determined from the slope of the line of kobs vs. [H2O2].\nAnalytical HPLC was performed on a HP Series 1050 system equipped with a Vydac® C18 reverse phase column (218 TP, 250×4.6 mm, 5 μm). […] Starting with 95% A and 5% B, an […] gradient was run for 15 min to a final solvent mixture of 5% A and 95% B, which was held for 5 min before ramping back down to 95% A and 5% B in 2 min and holding for an additional 4 min. Compounds ZBG-1a and PZBG-1a were prepared in HEPES buffer (50 mM, pH 7.5) at a concentration of 1 mM and retention times were determined. To evaluate cleavage by H2O2, a 1 mM solution of PZBG-1a in HEPES buffer was reacted with a 20-fold excess of H2O2 before analyzing under identical HPLC conditions as before."}
{"compound": "O=c1ccccn1OS(=O)(=O)c1ccc([N+](=O)[O-])cc1", "note": "[PZBG-1c, 2-Oxopyridin-1(2H)-yl 4-nitrobenzenesulfonate]", "cleavage of the sulfonate ester protecting group in the presence of H2O2": "rapid hydrolysis"}
{"compound": "Cc1occc(=O)c1OS(=O)(=O)c1ccccc1", "note": "[PZBG-2a, 2-Methyl-4-oxo-4H-pyran-3-yl benzenesulfonate]", "cleavage of the sulfonate ester protecting group in the presence of H2O2": "no cleavage"}
{"compound": "Cc1c(OS(=O)(=O)c2ccccc2)c(=O)ccn1C", "note": "[PZBG-3a, 1,2-Dimethyl-4-oxo-1,4-dihydropyridin-3-yl benzenesulfonate]", "cleavage of the sulfonate ester protecting group in the presence of H2O2": "no cleavage"}
{"compound": "O=c1cccccc1OS(=O)(=O)c1ccccc1", "note": "[PZBG-4a, 7-Oxocyclohepta-1,3,5-trien-1-yl benzenesulfonate]", "cleavage of the sulfonate ester protecting group in the presence of H2O2": "no cleavage"}
{"compound": "O=C(NCc1ccc(-c2ccccc2)cc1)c1cccc(=O)n1OS(=O)(=O)c1ccccc1", "note": "[PZBG-5a, 6-(([1,1′-Biphenyl]-4-ylmethyl)carbamoyl)-2-Oxopyridin-1(2H)-yl benzenesulfonate]", "cleavage of the sulfonate ester protecting group in the presence of H2O2": "achieved"}
{"compound": "O=C(O)c1ccc(S(=O)(=O)On2c(C(=O)NCc3ccc(-c4ccccc4)cc3)cccc2=O)cc1", "note": "[PZBG-5b, 4-(((6-(([1,1′-Biphenyl]-4-ylmethyl)carbamoyl)-2-Oxopyridin-1(2H)yl)oxy)sulfonyl)benzoic acid]", "cleavage of the sulfonate ester protecting group in the presence of H2O2": "achieved"}
{"compound": "O=C(NCc1ccc(-c2ccccc2)cc1)c1occc(=O)c1OS(=O)(=O)c1ccccc1", "note": "[PZBG-6a, 2-(([1,1′-Biphenyl]-4-ylmethyl)carbamoyl)-4-oxo-4H-pyran-3-yl benzenesulfonate]", "cleavage of the sulfonate ester protecting group in the presence of H2O2": "did not result in cleavage"}
{"experiment": "Cleavage of boronic ester/acid protected compounds by H2O2 (UV-Vis, rate constant, HPLC)", "format": "physicochemical", "details": "not given", "experimental": "(§1) Absorption spectra of compounds B1-B16 were taken on a Perkin-Elmer Lambda 25 UV-visible spectrophotometer. To a 1.0 mL solution at 0.05 mM concentration in HEPES buffer (50 mM, pH 7.5) was added H2O2 (10 uL (0.09 M) in HEPES for compounds B1-B12 and B14-B16, 10 uL (0.9 M) in HEPES for compound B3, and 2.8 uL (0.09 M) in HEPES for compound B13). Spectra were monitored over time at room temperature. Absorption spectra of compounds B17-B21 were taken on a Perkin-Elmer Lambda 25 UV-visible spectrophotometer. To a 1.0 mL solution at 0.05 mM concentration of compounds 1-7 in HEPES buffer (50 mM, pH=7.5) was added H2O2 (10 uL, 0.09 M in HEPES) or KO2 (0.10 mM) with catalase (5 U). Hydrolytic stability was measured by monitoring samples of B19-B21 in HEPES buffer for a 24 h time period. Spectra were monitored over time at room temperature.\n(§2) The pseudo-first order rate constant was calculated by monitoring the absorption spectra over time in the presence of excess hydrogen peroxide. To a 1.0 mL solution of compounds B1-B3 and B10-B14 in HEPES buffer (50 mM, pH 7.5) at 50 μM was added H2O2 to final concentrations of 150 μM, 250 μM, 500 μM, 750 μM, and 900 μM. Spectra were monitored over 15-30 min at room temperature with at least 50 spectra recorded. The change in absorption at 302 nm for B1-B3, 272 nm for B10, 312 nm for B11, 268 for B12, 306 nm for B13, and 303 nm for B14 were monitored. For compounds B1-B3 and B10-B11, the rate constant (kobs) was found from monitoring the appearance of the monitored absorption peak by plotting the linear slope of ln [(A∞−At)/(A∞)] vs. time (where A∞ is the absorbance of a 50 μM sample of the methyl salicylate for B1-B3, maltol for B10, and 1,2-HOPO for B11). For compounds B12-B14 the rate constant (kobs) was found from monitoring the disappearance of the monitored absorption peak by plotting the linear slope of ln [(A−AZBG)/(A0−AZBG)] vs. time (where AZBG is the absorbance of a 50 μM sample of the ZBG and A0 is the initial absorbance of […]).^3 The rate of conversion was determined from the slope of the line of kobs vs. [H2O2]. The pseudo-first order rate constant was calculated following literature procedure.^[15] To a 1.0 mL solution of compounds B19-B21 in HEPES buffer at 50 μM was added H2O2 to final concentrations of 150 μM, 250 μM, 500 μM, 750 μM, and 900 μM. Spectra were monitored over 15-30 min at room temperature with at least 50 spectra recorded. The change in absorption at 292 nm for B19 and 252 nm for B20 and B21 were monitored. The rate constant (kobs) was found from the linear slope of ln [(A−AZBG)/(A0−AZBG)] vs. time (where AZBG is the absorbance of a 50 μM sample of the ZBG and A0 is the initial absorbance of B19-B21). The rate of conversion was determined from the slope of the line of kobs vs. [H2O2].\n(§3) Analytical HPLC was performed on a HP Series 1050 system equipped with a Vydac® C18 reverse phase column (218 TP, 250×4.6 mm, 5 μm). […] Starting with 95% A and 5% B, an […] gradient was run for 15 min to a final solvent mixture of 5% A and 95% B, which was held for 5 min before ramping back down to 95% A and 5% B in 2 min and holding for an additional 4 min. Compounds were prepared in HEPES buffer (50 mM, pH 7.5) at a concentration of 1 mM. Retention times of compounds were determined under identical HPLC conditions prior to and after reaction with H2O2. LC-MS(+) was performed on compounds B6, B15 and B16 to confirm cleavage of the boronic ester to the phenolic moiety.", "units": {"excess of H2O2 required for deprotection in a comparable time frame": "fold"}}
{"compound": "COC(=O)c1ccccc1B1OC(C)(C)C(C)(C)O1", "note": "[Compound B3, Methyl 2-(4,4,5,5-tetramethyl-1,3,2-dioxaborolan-2-yl)benzoate]", "excess of H2O2 required for deprotection in a comparable time frame": 180}
{"experiment": "Cleavage of boronic ester/acid protected compounds by H2O2 (UV-Vis, rate constant, HPLC)", "format": "physicochemical", "details": "0.05 mM in HEPES pH 7.5, H2O2 18 eq", "experimental": "as §1, §2, §3"}
{"compound": "COC(=O)c1ccccc1SCc1ccc(B2OC(C)(C)C(C)(C)O2)cc1", "note": "[Compound B4, Methyl 2-((4-(4,4,5,5-tetramethyl-1,3,2-dioxaborolan-2-yl)benzyl)thio)benzoate]", "cleavage of the protecting group / release of the active compound in the presence of H2O2": "no cleavage"}
{"compound": "COC(=O)c1ccccc1NCc1ccc(B2OC(C)(C)C(C)(C)O2)cc1", "note": "[Compound B5, Methyl 2-((4-(4,4,5,5-tetramethyl-1,3,2-dioxaborolan-2-yl)benzyl)amino)benzoate]", "cleavage of the protecting group / release of the active compound in the presence of H2O2": "no formation of 2-aminobenzoate"}
{"compound": "COC(=O)c1ccc(NCc2ccc(B3OC(C)(C)C(C)(C)O3)cc2)cc1", "note": "[Compound B6, Methyl 4-((4-(4,4,5,5-tetramethyl-1,3,2-dioxaborolan-2-yl)benzyl)amino)benzoate]", "cleavage of the protecting group / release of the active compound in the presence of H2O2": "no formation of 4-aminobenzoate"}
{"compound": "COC(=O)c1ccc(CNCc2ccc(B3OC(C)(C)C(C)(C)O3)cc2)cc1", "note": "[Compound B7, Methyl 4-(((4-(4,4,5,5-tetramethyl-1,3,2-dioxaborolan-2-yl)benzyl)amino)methyl)benzoate]", "cleavage of the protecting group / release of the active compound in the presence of H2O2": "no cleavage"}
{"compound": "COC(=O)c1ccc(CNC(=O)OCc2ccc(B3OC(C)(C)C(C)(C)O3)cc2)cc1", "note": "[Compound B8, Methyl 4(((((4-(4,4,5,5-tetramethyl-1,3,2-dioxaborolan-2-yl)benzyl)oxy)carbonyl)amino)methyl)benzoate]", "cleavage of the protecting group / release of the active compound in the presence of H2O2": "desired benzyl amine is released"}
{"compound": "COC(=O)c1ccccc1CNC(=O)OCc1ccc(B2OC(C)(C)C(C)(C)O2)cc1", "note": "[Compound B9, Methyl 2-(((((4-(4,4,5,5-tetramethyl-1,3,2-dioxaborolan-2-yl)benzyl)oxy)carbonyl)amino)methyl)benzoate]", "cleavage of the protecting group / release of the active compound in the presence of H2O2": "desired benzyl amine is released"}
{"compound": "CC1(C)OB(c2ccc(CN(c3cccc4cccnc34)S(C)(=O)=O)cc2)OC1(C)C", "note": "[Compound B15, N-(Quinolin-8-yl)-N-(4-(4,4,5,5-tetramethyl-1,3,2-dioxaborolan-2-yl)benzyl)methanesulfonamide]", "cleavage of the protecting group / release of the active compound in the presence of H2O2": "did not show cleavage"}
{"compound": "CC1(C)OB(c2ccc(CONC(=O)c3ccccc3)cc2)OC1(C)C", "note": "[Compound B16, N-((4-(4,4,5,5-Tetramethyl-1,3,2-dioxaborolan-2-yl)benzyl)oxy)benzamide]", "cleavage of the protecting group / release of the active compound in the presence of H2O2": "no release of the desired hydroxamic acid ligand"}
{"compound": "CC1(C)OB(c2ccc(COn3c(C(=O)NCc4ccc(-c5ccccc5)cc4)cccc3=O)cc2)OC1(C)C", "note": "[Compound B17, N-([1,1′-biphenyl]-4-ylmethyl)-6-oxo-1-((4-(4,4,5,5-tetramethyl-1,3,2-dioxaborolan-2-yl)benzyl)oxy)-1,6-dihydropyridine-2-carboxamide]", "cleavage of the protecting group / release of the active compound in the presence of H2O2": "confirmed"}
{"compound": "CC1(C)OB(c2ccc(COc3c(C(=O)NCc4ccc(-c5ccccc5)cc4)occc3=O)cc2)OC1(C)C", "note": "[Compound B18, N-([1,1′-biphenyl]-4-ylmethyl)-4-oxo-3-((4-(4,4,5,5-tetramethyl-1,3,2-dioxaborolan-2-yl)benzyl)oxy)-4H-pyran-2-carboxamide]", "cleavage of the protecting group / release of the active compound in the presence of H2O2": "confirmed"}
{"compound": "CC1(C)OB(c2ccc(COn3ccccc3=O)cc2)OC1(C)C", "note": "[Compound B19, 1-((4-(4,4,5,5-tetramethyl-1,3,2-dioxaborolan-2-yl)benzyl)oxy)pyridin-2(1H)-one]", "cleavage of the protecting group / release of the active compound in the presence of H2O2": "clean conversion"}
